The list shows a part of the results. The main result of the screen is listed elsewhere. These columns were measured beside it and carry no call. The list favours compounds with an active or inconclusive main result. Words in brackets tell the shape of the fitted curve; partial curves, single points and poor fits give uncertain potencies.

A short description of the experiment: qHTS Assay for Modulators of Lamin A Splicing. The following applies: HeLa LMNA splicing GFP/RFP minigene ratio, 48 h. Put shortly:
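S3 HeLa cells stably expressing lamin A-EGFP splicing minigene plus DsRed2, 600 cells/well, 48 h compound exposure at 37C. Laser-scanning cytometry; analysed as GFP (500-530 nm)/RFP (575-640 nm) total intensity ratio; 0.5% DMSO vehicle.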
On the technique in general: Quantitative high-throughput screening tests each substance at several concentrations.

The mark [1] stands for this setting: measured here: GFP splicing reporter channel.
Where [2] appears, read: measured here: RFP viability control channel.

`C=CCNC(=S)Nc1ccc(OC(F)F)c(Cl)c1`: under setting [1], the AC50 was 35.5 µM [falling, single point]. Consider `COc1cc(C2C3=C(CC(C)(C)CC3=O)OC3=C2C(=O)CC(C)(C)C3)cc([N+](=O)[O-])c1O`, for which, under setting [2], the AC50 was 0.708 µM [falling, single point]. Regarding `CCOC(=O)c1ccc2c(c1)N(Cc1ccccc1)C(=O)c1ccccc1S2`, the AC50 under setting [2] is 11.2 µM [rising, partial curve, poor fit].

With `COc1ccc(CCNC(=O)CCSCc2ccccc2Cl)cc1OC`, the AC50 under setting [1] is 0.00631 µM [rising, full curve, poor fit]. In the case of `O=C(Nc1cc(Cl)cc(Cl)c1)c1ccc(F)c(S(=O)(=O)NC2CCCCC2)c1`, the AC50 reads like this: under setting [1], 35.5 µM [falling, single point]; under setting [2], 25.1 µM [falling, partial curve, poor fit]. In the case of `NS(=O)(=O)c1ccc(NC(=O)COC(=O)CCc2ccccc2)cc1`, the AC50 under setting [2] is 0.00316 µM [falling, full curve, poor fit]. Take `O=C(NC1=NCCS1)c1cccc(OC(F)F)c1`: under setting [1], the AC50 was 5.62 µM [rising, single point]. As to `Cc1ccc(C(=O)Nc2ccc3cn[nH]c3c2)cc1S(=O)(=O)N1CCCCC1`, the concentration at half-maximal activity (AC50) under setting [2] was 12.6 µM [rising, partial curve]. As to `CCn1c(=O)c(C(=O)NCc2cccnc2)c(O)c2ccccc21`, the AC50 under setting [1] was 15.8 µM [rising, single point] and the AC50 under setting [2] was 17.8 µM [rising, single point].

In the case of `CNC(=O)c1cccn1-c1ccsc1C(=O)OC`, the AC50 under setting [2] was 0.0355 µM [falling, full curve, poor fit]. Same read-out and setting: under `CCOC(=O)c1ccc2c(c1)nc(C1CCN(S(=O)(=O)c3cccs3)CC1)n2CC` stands 22.4 µM [rising, single point]. On to `O=C(NC1CC1)C1CCCN1C(=O)NC1CCCCC1` (stereo unspecified), for which the AC50 under setting [1] was 35.5 µM [rising, single point].

Take `CC(C)Cn1c2c(c(=O)[nH]c1=O)C(C(F)(F)F)(C(F)(F)F)N=C(CCC1CCCCC1)N2`: the AC50 reads like this: under setting [1], 1.58 µM [rising, full curve]; under setting [2], 0.0158 µM [rising, full curve, poor fit]. In the case of `CC(C)NC(=O)c1onc(CSc2ccc(Cl)cc2)c1C(=O)O`, the AC50 under setting [1] was 3.55 µM [falling, single point]. With `O=C(c1ccco1)N1CCN(C(=O)C2CC(c3ccc(Cl)c(Cl)c3)=NO2)CC1` (stereo unspecified), the AC50 under setting [2] is 35.5 µM [rising, single point].

Turning to `Cc1ccc(NC(=O)CCNS(=O)(=O)c2cc(Br)cnc2N)cc1Cl`, the AC50 reads like this: under setting [1], 12.6 µM [rising, single point]; under setting [2], 25.1 µM [rising, single point].

`Cc1nc(Nc2ccc(S(=O)(=O)N3CCCCC3C)cc2)c2nnn(Cc3ccccc3)c2n1` (stereo unspecified): the AC50 under setting [2] is 7.94 µM [rising, partial curve].

For the compound `Cc1ccc(NC(=O)CN2CCC(NC(=O)C3CCCCC3)CC2)c(Br)c1`, the AC50 under setting [1] is 35.5 µM [rising, single point]. For the compound `CCN(Cc1ccccc1)C(c1cccs1)c1nnnn1C1CCCCC1` (stereo unspecified), the AC50 under setting [1] is 14.1 µM [rising, single point] and the concentration at half-maximal activity (AC50) under setting [2] was 35.5 µM [rising, single point].

For `Cc1cc(O)ccc1N/C=C(\C#N)c1nc2ccccc2o1`, the AC50 under setting [2] was 7.08 µM [rising, partial curve, poor fit]. As for `OCCOCCN1CCN(C(c2ccccc2)c2ccc(Cl)cc2)CC1` (stereo unspecified), the AC50 is, setting by setting: under setting [1], 8.91 µM [falling, partial curve, poor fit]; under setting [2], 31.6 µM [rising, single point]. In the case of `CC(=O)Cc1nsc(NC(=O)c2ccc(-c3ccc(Cl)c(C(F)(F)F)c3)o2)n1`, the half-maximal activity concentration (AC50) is, setting by setting: under setting [1], 35.5 µM [rising, single point]; under setting [2], 35.5 µM [rising, single point].

As for `O=C(CC1N=C2c3ccccc3N=C(SCc3cccc(F)c3)N2C1=O)NCc1ccc2c(c1)OCO2` (stereo unspecified), under setting [2], the AC50 is 0.0631 µM [falling, full curve].

For the compound `CCc1ccc(N(C(=O)c2snc(C(N)=O)c2N)C(C(=O)NCCC(C)C)c2c[nH]c3ccccc23)cc1` (stereo unspecified), the AC50 under setting [1] was 15.8 µM [falling, partial curve, poor fit] and the AC50 under setting [2] is 17.8 µM [falling, single point]. For the compound `O=C(Nc1ccc(Cc2ccncc2)cc1)C1CCC(N2C(=O)C3C4C=CC(C5CC45)C3C2=O)CC1` (stereo unspecified), the AC50 was 35.5 µM [rising, single point] under setting [1] and 14.1 µM [rising, partial curve] under setting [2]. Consider `O=C(O)c1ccc(N/N=C/c2ccc(-c3ccccc3)cc2)cc1`, for which the AC50 under setting [1] was 0.01 µM [rising, single point]. For the compound `O=[N+]([O-])c1cc([N+](=O)[O-])c2cccnc2c1Oc1ccccc1O`, under setting [2], the half-maximal activity concentration (AC50) is 1.12 µM [rising, partial curve]. As for `COc1ccc(OC)c(S(=O)(=O)N(C)CC(=O)N2CCN(c3cccc(Cl)c3)CC2)c1`, the AC50 under setting [2] is 31.6 µM [rising, single point]. For the compound `Cc1ccc(OS(=O)(=O)c2ccccc2)c(/C=N/N=C2\NC(=O)C(C)S2)c1` (stereo unspecified), the AC50 under setting [2] was 14.1 µM [rising, single point]. With `CC(NC(=O)/C(=C/c1ccc2c(c1)OCO2)NC(=O)c1cccc([N+](=O)[O-])c1)C(=O)O` (stereo unspecified), the AC50 by setting is: under setting [1], 0.447 µM [falling, full curve, poor fit]; under setting [2], 0.316 µM [falling, full curve, poor fit]. On to `Cc1ccc(N2CCN(C(=O)c3cc(S(=O)(=O)N4CCCCC4)c[nH]3)CC2)c(C)c1`, for which the AC50 under setting [1] was 22.4 µM [falling, single point]. Consider `Oc1ccc(CN2CCCCC2)c2cccnc12`, for which, under setting [2], the AC50 was 35.5 µM [rising, single point]. Still for that read-out and setting: under `Cc1c2cnn(-c3ccccc3)c(=O)c2c(C)n1CCCC(=O)N1CCN(c2ncccn2)CC1` stands 20 µM [rising, single point]. With `O=C(CN1C(=O)NC2(CCCc3ccccc32)C1=O)Nc1cccc(S(=O)(=O)N2CCCCC2)c1` (stereo unspecified), the AC50 was 35.5 µM [rising, single point] under setting [1] and 15.8 µM [rising, partial curve] under setting [2]. For `COCCOC(=O)C1=C(C)NC2=C(C(=O)CC(c3cccs3)C2)C1c1ccsc1` (stereo unspecified), the AC50 under setting [2] is 35.5 µM [rising, single point].

One may read the AC50 as the midpoint of the concentration-response curve, whichever way the signal moves.

For the origin of these results see PubChem BioAssay AID1487 (National Center for Advancing Translational Sciences (NCATS), 2009).
